This test deals with P388 leukemia ip, CD2F1 mice, survival T/C. Nature of the test: NCI In Vivo Anticancer Drug Screen. Data for tumor model P388 Leukemia (intraperitoneal) in CD2F1 (CDF1) mice. To be noted: T/C endpoint: median survival time, higher T/C = longer survival.
The mark [1] stands for this setting: dose: 120.0 mg/kg/injection, schedule: Q01DX005 (ip), vehicle: saline with Tween-80.
[2] abbreviates: dose: 60.0 mg/kg/injection, schedule: Q01DX005 (ip), vehicle: saline with Tween-80.
The mark [3] stands for this setting: dose: 240.0 mg/kg/injection, schedule: Q01DX005 (ip), vehicle: saline with Tween-80.
Where [4] appears, read: dose: 240.0 mg/kg/injection, schedule: Q01DX005 (ip), vehicle: saline.
The mark [5] stands for this setting: dose: 400.0 mg/kg/injection, schedule: Q01DX009 (ip), vehicle: saline with Tween-80.
Where [6] appears, read: dose: 200.0 mg/kg/injection, schedule: Q01DX005 (ip), vehicle: saline with Tween-80.
[7] abbreviates: dose: 7.5 mg/kg/injection, schedule: Q01DX005 (ip), vehicle: Klucel (hydroxypropylcellulose) (HPC).
[8] abbreviates: dose: 60.0 mg/kg/injection, schedule: Q01DX005 (ip), vehicle: Klucel (hydroxypropylcellulose) (HPC).
[9] abbreviates: dose: 120.0 mg/kg/injection, schedule: Q01DX005 (ip), vehicle: Klucel (hydroxypropylcellulose) (HPC).
The mark [10] stands for this setting: dose: 240.0 mg/kg/injection, schedule: Q01DX005 (ip), vehicle: Klucel (hydroxypropylcellulose) (HPC).
Where [11] appears, read: dose: 200.0 mg/kg/injection, schedule: Q01DX009 (ip), vehicle: saline with Tween-80.
Where [12] appears, read: dose: 400.0 mg/kg/injection, schedule: Q01DX001 (ip), vehicle: saline with Tween-80.

The list does not hold the whole screen: it is rich in T/C values a quarter to a half above the control, in often repeated tests (any T/C) and in doses without a T/C. Other doses and runs of a compound stand elsewhere. T/C is the treated group as % of the vehicle group. Some doses have a count of surviving animals in place of a T/C: the source files T/C as zero there, which appears to mark a toxic dose or a test without result, not a measured value. Some doses without a T/C left all or most animals alive at the check, yet need not have been tolerated: the source hardly ever lists a survival T/C far under the control, and the zero likely stands for such cases as well. Counts of survivors are from the toxicity check (mostly the fifth day) where no day follows; animals may have died later. Schedule codes are those of the source, read here as Q, the interval in days (D) or hours (H), X, the number of doses. Some entries were tested several times; their values stand side by side, smallest first. For survival time, the PubChem record calls one and a half times the control and up active, and a quarter to a half above the control has no call in these data; cut-offs in other NCI protocols can differ. Some T/C values carry the count of animals alive at the toxicity check (mostly the fifth day); without a count, all were alive then.

Regarding `COc1nccn2c(C)nnc12`, the survivor count (dose: 400.0 mg/kg/injection, schedule: Q01DX001 (ip), vehicle: Klucel (hydroxypropylcellulose) (HPC)) is recorded as 0 of 6.

Turning to `O=C(c1ccccc1)c1ccccc1NCC(O)COc1ccc(Cl)cc1` (stereo unspecified), the survivor count under setting [1] is 6 of 6.

As for `C/C(=N\Nc1ccc([N+](=O)[O-])cc1[N+](=O)[O-])c1ccc[nH]1`, the survivor count reads like this: under setting [2], 6 of 6; under setting [1], 6 of 6; under setting [3], 6 of 6.

On to `N#C/C(=C\C(Cl)=C/c1ccccc1)C(N)=S`, for which the survivor count (dose: 200.0 mg/kg/injection, schedule: Q01DX009 (ip), vehicle: saline) is 6 of 6.

`CCCCNC(=O)OCCN(C)CCOC(=O)NCCCC`: under setting [4], the survivor count is 0 of 6.

As to `C/C(=N\NC(=S)N1CCN(c2cnccn2)CC1)c1ccccn1`, for the setting “dose: 15.0 mg/kg/injection, schedule: Q01DX005 (ip), vehicle: saline with Tween-80”, the T/C was 131 and 136 % of control [5 of 6 alive]. The survivor count was 1 of 6 and 2 of 6 (dose: 30.0 mg/kg/injection, schedule: Q01DX005 (ip), vehicle: saline with Tween-80); 0 of 6 under setting [2]; 0 of 6 under setting [1]; 0 of 6 under setting [3].

`CNc1ncn(-c2c(C)cccc2C)c(=O)n1`: under setting [1], the survivor count is given as 4 of 6. Also, the T/C was 128 % of control under setting [3] and 133 % of control [5 of 6 alive] (dose: 480.0 mg/kg/injection, schedule: Q01DX005 (ip), vehicle: saline with Tween-80).

For `CN(Cc1ccccc1)C(=O)C(=O)c1c[nH]c2ccccc12`, the survivor count under setting [5] was 6 of 6.

In the case of `CCN(CCO)CCNc1ccc(C)c2sc3cc(OC)ccc3c(=O)c12`, under setting [6], the T/C is 125 % of control. Further, the survivor count (dose: 400.0 mg/kg/injection, schedule: Q01DX005 (ip), vehicle: saline with Tween-80) is 4 of 6.

On to `CNC(=O)OCc1c(COC(=O)NC)c2n(c1C)-c1ccc(OC)cc1CCC2`, for which the T/C reads like this: (dose: 1.87 mg/kg/injection, schedule: Q01DX005 (ip), vehicle: Klucel (hydroxypropylcellulose) (HPC)) 125 % of control; (dose: 3.75 mg/kg/injection, schedule: Q01DX005 (ip), vehicle: Klucel (hydroxypropylcellulose) (HPC)) 135 % of control; under setting [7], 147 % of control; (dose: 15.0 mg/kg/injection, schedule: Q01DX005 (ip), vehicle: Klucel (hydroxypropylcellulose) (HPC)) 144 % of control. For the same compound, the survivor count (dose: 30.0 mg/kg/injection, schedule: Q01DX005 (ip), vehicle: Klucel (hydroxypropylcellulose) (HPC)) is 4 of 6; the survivor count under setting [8] is 4 of 6; the survivor count under setting [9] is given as 0 of 6; the survivor count under setting [10] is 0 of 6.

Turning to `COC1/C=C/OC2(C)Oc3c(C)c(O)c4c(O)c(c(/C=N/N(C)C(C)C(O)c5ccccc5)c(O)c4c3C2=O)NC(=O)C(C)=C/C=C/C(C)C(O)C(C)C(O)C(C)C(OC(C)=O)C1C` (stereo unspecified), under setting [11], the survivor count was 3 of 6.

On to `Cc1cc(Oc2ccc(Cl)cc2NC(=O)Nc2cccc(C(F)(F)F)c2)cc(S(=O)(=O)O)c1Cl`, for which the survivor count by setting is: (dose: 200.0 mg/kg/injection, schedule: Q01DX001 (ip), vehicle: saline with Tween-80) 1 of 6; under setting [12], 0 of 6.

For the compound `CCOC(=O)/C=C(/C)SC1=CC(=O)c2ccccc2C1=O`, the survivor count is, setting by setting: (dose: 3.13 mg/kg/injection, schedule: Q01DX009 (ip), vehicle: saline) 6 of 6; (dose: 25.0 mg/kg/injection, schedule: Q01DX009 (ip), vehicle: saline with Tween-80) 2 of 6; (dose: 50.0 mg/kg/injection, schedule: Q01DX009 (ip), vehicle: saline with Tween-80) 2 of 6; (dose: 100.0 mg/kg/injection, schedule: Q01DX009 (ip), vehicle: saline with Tween-80) 0 of 6; under setting [11], 0 of 6. Moreover, the T/C (dose: 6.25 mg/kg/injection, schedule: Q01DX009 (ip), vehicle: saline with Tween-80) is 128 % of control.

For `COc1cc2c(cc1OC)C1c3cc(OC)c(OC)cc3CCN1CC2`, for the setting “dose: 50.0 mg/kg/injection, schedule: Q01DX009 (ip), vehicle: water”, the survivor count is given as 0 of 6.

Turning to `COc1cccc2c1OC1(N3CCOCC3)CCCCC1C2C[N+](=O)[O-]` (stereo unspecified), the survivor count under setting [5] is recorded as 5 of 6.

`O=C1CCC2(c3ccccc3)CCCN=C2N1` (stereo unspecified): the survivor count under setting [12] is on record as 0 of 6.

Turning to `O=S(=O)(N/N=C/c1ccccc1)c1ccccc1`, the survivor count (dose: 400.0 mg/kg/injection, schedule: Q01DX009 (ip), vehicle: Klucel (hydroxypropylcellulose) (HPC)) was 2 of 6.

In the case of `NC1=C(O)C(=O)C(c2c[nH]c3ccc(OCc4ccccc4)cc23)O1` (stereo unspecified), the survivor count under setting [7] is on record as 6 of 6, the survivor count under setting [8] is 6 of 6, the survivor count under setting [9] is given as 6 of 6 and the survivor count under setting [10] is on record as 6 of 6.

As for `C=CC1OCCCO1`, the survivor count under setting [4] is reported as 1 of 6.

`C=C(C)C(=O)OCC1CO1` (stereo unspecified): where the note is “dose: 400.0 mg/kg/injection, schedule: Q01DX009 (ip), vehicle: water”, the survivor count is on record as 0 of 6.

For `CCOc1c(N=Nc2ccc(Cl)cc2)c(C)nn1C(=S)SC`, the survivor count is 6 of 6 (dose: 30.0 mg/kg/injection, schedule: Q01DX005 (ip), vehicle: Klucel + Tween-80); 6 of 6 (dose: 60.0 mg/kg/injection, schedule: Q01DX005 (ip), vehicle: Klucel + Tween-80); 0 of 6 (dose: 120.0 mg/kg/injection, schedule: Q01DX005 (ip), vehicle: Klucel + Tween-80); 0 of 6 (dose: 240.0 mg/kg/injection, schedule: Q01DX005 (ip), vehicle: Klucel + Tween-80).

Turning to `Nc1cc2c(c[n+](CCO)c3ccccc23)c2ccccc12`, the survivor count (dose: 200.0 mg/kg/injection, schedule: Q04DX003 (ip), vehicle: other) is recorded as 6 of 6.

In the case of `CC(C)NC(=O)OCc1c(COC(=O)NC(C)C)c2n(c1-c1ccc(Cl)c(Cl)c1)CCS2=O` (stereo unspecified), the survivor count under setting [6] was 6 of 6.

Turning to `CCC(/C=C/C1OC(=O)C=CC1C)=C\C(C)C/C=C/C(C)=C/C(C)C(=O)C(C)C(O)C(C)C/C(C)=C/C(=O)O` (stereo unspecified), the T/C is 137 % of control (dose: 12.5 micrograms/kg/injection, schedule: Q01DX005 (ip), vehicle: saline + alcohol); 127 and 141 % of control (dose: 25.0 micrograms/kg/injection, schedule: Q01DX005 (ip), vehicle: saline + alcohol); 146 and 148 % of control (dose: 50.0 micrograms/kg/injection, schedule: Q01DX005 (ip), vehicle: saline + alcohol). Besides, the survivor count reads like this: (dose: 100.0 micrograms/kg/injection, schedule: Q01DX005 (ip), vehicle: saline + alcohol) 6 of 6; (dose: 200.0 micrograms/kg/injection, schedule: Q01DX005 (ip), vehicle: saline + alcohol) 3 of 6 and 4 of 6.
